## Primary screen of a compound library

From ChEMBL document CHEMBL3988442, “University of Dundee, Small-Polar-MMV Screening Library” (2021).

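Whole-parasite assay of Trypanosoma brucei over 72 hours; the read-out is not stated. Compounds at 30 µM. The record gives no direction; compounds that gave an IC50 in retests scored well above the rest, so higher reads as stronger inhibition. Values scatter widely below zero; nearly all retest evidence comes from the higher of the two concentrations used. Of about 64,000 compounds tested this way, about 940 (1.5%) reached 50% or more in at least one test.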

Each number is a percent effect as filed.
The controls that fix the scale are not given in the record; negative values are as filed.
This is an unselected part of the compounds tested.

| SMILES | percent effect |
|---|---|
| `CC[C@@]1(O)CCN(C(=O)c2ccc(CN3CCCCCC3)cc2)C[C@H]1O` | -47.3 |
| `O=C(CCCn1cncn1)N1CCC2(CCCN(C3CCCC3)C2=O)C1` (centres undefined) | -25.42 |
| `CNC(=O)c1nc(COc2ccc3c(c2)OCO3)no1` | -3.556 |
| `Cc1nn(C)cc1-c1ccnc(N2CCN(c3ccccc3)C(=O)C2)n1` | 1.557 |
| `CCOCCNC(=O)c1cnc(Sc2nccn2C)c(Cl)c1` | 8.605 |
| `c1cnn(CC2CCCCN2Cc2nc(-c3ccsc3)no2)c1` (centres undefined) | 14.92 |
| `Cc1ocnc1C(=O)N(Cc1cccnc1)C[C@@H]1CCC(=O)N1` | -29.99 |
| `CNS(=O)(=O)c1ccc(C(=O)NC2CCc3nc(C)cn3C2)o1` (centres undefined) | -8.435 |
| `COc1cccc2c1OCC(Cc1cc(C(=O)N3CCCC3)ccn1)C2` (centres undefined) | -29.06 |
| `CC(C)CC(=O)N1CCCn2cnc(CN3CCCC3=O)c2C1` | -34.08 |
| `CS(=O)(=O)NCc1cncc2c1CCN(C(=O)N1CCCC1)C2.Cl` | -11.25 |
| `COc1ccccc1C(C)N1CCN(S(=O)(=O)N(C)C)CC1` (centres undefined) | -28.92 |
| `O=C(O)C(F)(F)F.O=C(O)C(F)(F)F.O=C(O)C(F)(F)F.O=C(O)C(F)(F)F.[H][C@@]12CCCO[C@]1([H])[C@H](N(C)Cc1cccnc1)CN2Cc1cnn(C)c1` | -6.057 |
| `CCN(Cc1ccc(Cl)s1)S(=O)(=O)CCOC` | -12.9 |
| `O=C(c1cnccn1)N1CCN(Cc2ccncc2)c2ncccc2C1` | -9.826 |
| `COc1ccc(C2OC(COc3ccc(C)cc3)=NN2C(C)=O)cc1` (centres undefined) | 1.146 |
| `N#Cc1cn(CCCN2CCc3ccccc3C2)c(=O)[nH]c1=O` | -20.78 |
| `[H][C@]12CN(C)CCN1C(=O)N(C1CCCCC1)C2` | -45.17 |
| `CCn1ccnc1CN1CCCC1C(=O)Nc1nccs1` (centres undefined) | 4.608 |
| `COc1cccc(NC(=O)c2cc3c([nH]c2=O)CCCC3=O)c1` | -20.64 |
| `CCSc1cc(C(=O)NCCC(=O)N(C)C)ccn1` | -17.62 |
| `COc1ccccc1NC(=O)N1CCCC1c1ccco1` (centres undefined) | 0.3465 |
| `Cc1cc(CN2CCc3nn(C)c(=O)cc3C2)on1` | -4.235 |
| `Cc1nnc(NC(=O)CN(C)C2CCCN(c3cccnn3)C2)s1` (centres undefined) | -22.72 |
| `CCOc1cc(C)nc(N2CCN(C(=O)c3csnn3)CC2)n1` | -15.75 |
| `CN1CCN(C(=O)C2CN(Cc3cc4ccccc4o3)CCN2)CC1` (centres undefined) | -18.92 |
| `CN(Cc1cccc(-n2cccn2)c1)C(=O)c1cccc(N(C)C)c1` | -12.15 |
| `Cc1nc2ccccc2nc1CN1CCOC(Cn2cccn2)C1` (centres undefined) | 14.72 |
| `CC(NC(=O)N(C)Cc1ccc(Cl)s1)c1ccccn1` (centres undefined) | 3.349 |
| `COc1ccnc(N2CCN(C(=O)Cc3ccc(C#N)cc3)CC2)n1` | 4.593 |
| `COc1ccccc1CN1CC[C@]2(C[C@@H](OC)CO2)C1.O=C(O)C(F)(F)F` | -26.27 |
| `O=C(O)C(F)(F)F.O=C(O)C(F)(F)F.[H][C@@]12COC[C@H](C(=O)Nc3cccnc3)[C@]1([H])CN(C1CCCC1)C2` | 12.21 |
| `Cc1ccc(C(=O)N2CCc3nc4c(C)csc4c(=O)n3CC2)cn1` | 32.85 |
| `Cc1cccc(CNc2cncc(-n3cccn3)n2)c1` | -0.6536 |
| `CC(C)(C(=O)NCc1ccc(C#N)cc1)n1cc(Br)cn1` | 12.02 |
| `N#Cc1ccc(S(=O)(=O)NC(=O)C2CC(c3ccccc3)=NO2)cc1` (centres undefined) | -13.53 |
| `CN(C)C(=O)c1cnc2n1CCN(Cc1ccccc1)C2.O=C(O)C(F)(F)F` | -11.93 |
| `Cn1cccc1C(=O)N1CCCCC1c1[nH]ncc1S(C)(=O)=O` (centres undefined) | -30.07 |
| `CCn1nccc1CN(C)C(=O)Cn1nc(C)c(C)c1C` | 0.6303 |
| `[H][C@@]12CCN(S(=O)(=O)CC)[C@]1([H])CC[C@H](c1nnc(C)o1)O2` | -4.801 |
| `Cn1ccnc1C1CCCN(C(=O)c2ccncc2F)C1` (centres undefined) | -3.707 |
| `COc1ccc(NC(=O)c2cnc(N(C)C3CCCCC3)nc2N)cc1` | 61 |
| `COc1c(CNC(c2cccc(F)c2)c2nccn2C)c(C)nn1C` (centres undefined) | -26.32 |
| `CN1C(=O)C2(CCN(CC3CCC3)C2)c2ccccc21.O=C(O)C(F)(F)F` (centres undefined) | -4.889 |
| `O=S(=O)(c1ccc(F)cc1Cl)N1CCCC1c1ccncc1` (centres undefined) | -34.33 |
| `Cc1cccc(CN2CCCC3(CCN(CC(=O)N(C)C)C3=O)C2)n1.O=C(O)C(F)(F)F` (centres undefined) | -25.43 |
| `Cn1cnc2c1C(COCC1CC1)CN(c1ncccn1)C2.O=C(O)C(F)(F)F.O=C(O)C(F)(F)F` (centres undefined) | -28.25 |
| `CCS(=O)(=O)c1ccccc1N1CCC(NC(=O)C(C)C)CC1` | -15.87 |
| `O=C(O)C(F)(F)F.[H][C@@]12COC[C@]1(CNC(=O)C1CCC1)CN(Cc1cccc(C)c1)C2` | 2.626 |
| `COCC(C)NC(=O)CN1CCCC1` (centres undefined) | -28.2 |
| `Cn1nc(C(=O)NC2CC(C)(C)NC(C)(C)C2)cc1NC(=O)C1CC1` | -20.07 |
| `O=C(O)C(F)(F)F.[H][C@@]12CN(c3ncc(C)cn3)C[C@@]1([H])N(CCN(C)C)C(=O)CO2` | -65.4 |
| `CN1CCc2c(C#N)c(NCCCO)n3cnnc3c2C1` | -50.81 |
| `O=S(=O)(CCCn1cncn1)Cc1ccc(F)cc1Cl` | -41.32 |
| `CCc1nc(C2CCCN2C(=O)CCc2cscn2)no1` (centres undefined) | -13.21 |
| `Cl.c1cn(-c2cnc(C3CCCNC3)cn2)cn1` (centres undefined) | -22.3 |
| `Cc1cnc(-c2nc(C3CCCN(Cc4cccs4)C3)no2)cn1` (centres undefined) | -18.25 |
| `Cc1cccc2nc(C(=O)N3CCC(Nc4cccnn4)CC3)cn12` | -30.27 |
| `CCC(C)NC(=O)c1sccc1-n1cnnn1` (centres undefined) | -22.17 |
| `CN(CC1(CO)CCC1)C(=O)c1cc(COc2ccccc2F)[nH]n1` | -25.39 |
| `CSc1nc(C2CC2)nc(C)c1C(=O)NCc1ccco1` | -38.12 |
| `COc1ccc(CCC(=O)Nc2ccc3ncn(C)c(=O)c3c2)cc1` | 4.952 |
| `O=C(Cc1ccc2c(c1)OCCO2)N1CCN(c2cnccn2)CC1` | -18.37 |
| `Oc1ccccc1CN1C[C@H](O)C[C@H]1c1nc(Cc2ccccc2)no1` | -3.101 |
| `CC1CCCN(C(=O)c2nnn(-c3ccc(C(F)(F)F)cc3)n2)C1` (centres undefined) | -0.4738 |
| `CN1C(=O)CCC12CCN(c1ccc(C#N)cn1)CC2.O=C(O)C(F)(F)F` | -1.128 |
| `Cc1ccc(CN(CC(=O)NC2CCOCC2)c2ccc(F)cc2)o1` | 2.943 |
| `CC1CCc2nc(O)c(C(=O)NCCCN3CCN(C)CC3)cc2C1` (centres undefined) | -26.8 |
| `CCc1nc(CN(C)C2CCN(CCNS(=O)(=O)CC)C2)no1` (centres undefined) | -26.73 |
| `Cc1cn([C@H]2CCNC[C@]2(C)O)c(=O)[nH]c1=O` | 7.87 |
| `COc1ccc2c(c1)CCCN(CC(=O)NCC1CCCO1)C2` (centres undefined) | -24.22 |
| `[H][C@]12CC[C@](O)(CC1)C(COC)N2C(=O)c1ccco1` (some centres undefined) | -31.26 |
| `CC(C)c1csc(C2CCCN(C(=O)c3ncccn3)C2)n1` (centres undefined) | -74.64 |
| `CCn1cc(CNC2CCN(c3cccc(C)c3C)CC2)cn1` | 7.283 |
| `[H][C@]12CC[C@]([H])(CN(C(=O)CCn3cc(Cl)cn3)C1)N(Cc1ccccn1)C2` | 13.43 |
| `COCCNC(=O)NCCc1cccc(OC)c1O` | -72.68 |
| `Cc1ccc2c(n1)N(CCn1cccn1)CCN(C(=O)NC1CC1)C2.O=C(O)C(F)(F)F` | 6.287 |
| `Cc1nc(C2CCCN2C(=O)c2ccc(F)cc2)ncc1C(N)=O` (centres undefined) | 16.12 |
| `O=C(O)C(F)(F)F.[H][C@@]12CCN(c3cccnc3)C[C@]1([H])CN(C(=O)CC1CCCC1)C2` | -10.46 |
| `Cc1ccccc1N1CC2(CCN(S(=O)(=O)c3ccccc3)C2)CC1=O` (centres undefined) | 11.6 |

For reference, 6 entries once more:

With Cc1ccc(CN(CC(=O)NC2CCOCC2)c2ccc(F)cc2)o1 the screen gave 2.943%.
With O=C(O)C(F)(F)F.O=C(O)C(F)(F)F.O=C(O)C(F)(F)F.O=C(O)C(F)(F)F.[H][C@@]12CCCO[C@]1([H])[C@H](N(C)Cc1cccnc1)CN2Cc1cnn(C)c1 the screen gave -6.057%.
With COCCNC(=O)NCCc1cccc(OC)c1O the screen gave -72.68%.
With CCn1nccc1CN(C)C(=O)Cn1nc(C)c(C)c1C the screen gave 0.6303%.
With O=C(O)C(F)(F)F.[H][C@@]12COC[C@]1(CNC(=O)C1CCC1)CN(Cc1cccc(C)c1)C2 the screen gave 2.626%.
With Cc1cccc2nc(C(=O)N3CCC(Nc4cccnn4)CC3)cn12 the screen gave -30.27%.